## Screening data

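A panel of P. falciparum strains inside erythrocytes is exposed to compounds for three days, then a DNA-binding dye reports the amount of parasite DNA. Each compound was titrated across a series from about 0.000037 to 29 µM. The number is the fitted AC50, the concentration giving a half-maximal change in signal; a lower value means higher potency, whether the curve shows a decrease or an increase. Calls follow the curve class and fit quality: every row here is inconclusive, covering signal-raising curves and weak, poorly fitted, partial or highest-dose-only inhibition curves.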

Values are in µM. All entries here are filed as inconclusive. Only part of the assay is shown, chiefly results filed as inconclusive. A potency from a partial, single-point or poor curve is only a rough figure. The first word of each remark tells which way the curve ran; it can be opposite to the aim of the assay.

Compound,setting,potency (µM),curve as filed
NS(=O)(=O)Cc1noc2ccccc12,7G8,17.78,"inhibitor, single point"
COC([CH2][Hg])CNC(=O)c1ccccc1OCC(=O)O (centres undefined),CP260,10,"inhibitor, single point"
CC(C)NCC(O)c1ccc(O)c(O)c1 (centres undefined),7G8,11.22,"inhibitor, single point"
CC(C)NCC(O)c1ccc(O)c(O)c1 (centres undefined),CP266,0.0849,"inhibitor, full curve, poor fit"
CC(C)NCC(O)c1ccc(O)c(O)c1 (centres undefined),DIV14,8.492,"inhibitor, partial curve, poor fit"
CC(C)NCC(O)c1ccc(O)c(O)c1 (centres undefined),PC26,16.94,"inhibitor, single point"
CC(C)NCC(O)c1ccc(O)c(O)c1 (centres undefined),GB4,3.793,"inhibitor, partial curve, poor fit"
CC(C)OC(=O)Nc1ccc2nc(-c3cscn3)[nH]c2c1,CP269,13.46,"inhibitor, single point"
CC(C)OC(=O)Nc1ccc2nc(-c3cscn3)[nH]c2c1,CP266,21.33,"inhibitor, single point"
CC(C)OC(=O)Nc1ccc2nc(-c3cscn3)[nH]c2c1,CP297,0.0379,"activator, full curve, poor fit"
CC(C)OC(=O)Nc1ccc2nc(-c3cscn3)[nH]c2c1,C2A,12.59,"inhibitor, partial curve, poor fit"
CC(C)OC(=O)Nc1ccc2nc(-c3cscn3)[nH]c2c1,CP291,6.012,"inhibitor, partial curve"
CC(C)OC(=O)Nc1ccc2nc(-c3cscn3)[nH]c2c1,CP247,10,"inhibitor, single point"
CC(C)OC(=O)Nc1ccc2nc(-c3cscn3)[nH]c2c1,ICS,17.78,"inhibitor, single point"
CC(C)OC(=O)Nc1ccc2nc(-c3cscn3)[nH]c2c1,DIV17,19.01,"inhibitor, single point"
CC(=O)OC[C@H]1O[C@@H](n2ncc(=O)[nH]c2=O)[C@H](OC(C)=O)[C@@H]1OC(C)=O,TAB113,3.548,"inhibitor, single point"
O=C(NC[C@@H](O)CO)c1c(I)c(C(=O)NC[C@@H](O)CO)c(I)c(N(CCO)C(=O)CO)c1I,P94_40,4.467,"inhibitor, single point"
O=C(NC[C@@H](O)CO)c1c(I)c(C(=O)NC[C@@H](O)CO)c(I)c(N(CCO)C(=O)CO)c1I,CP266,0.0003,inhibitor
O=P(O)(O)OC[C@H](O)CO,CP266,0.1069,"activator, full curve, poor fit"
O=P(O)(O)OC[C@H](O)CO,CP215,2.686,"inhibitor, partial curve, poor fit"
Nc1ccn([C@@H]2O[C@H](CO)[C@H](O)C2(F)F)c(=O)n1,PC15,17.78,"inhibitor, single point"
Nc1ccn([C@@H]2O[C@H](CO)[C@H](O)C2(F)F)c(=O)n1,JCK,12.59,"inhibitor, partial curve, poor fit"
Cc1cc(NC(=O)C2=C(O)c3ccccc3S(=O)(=O)N2C)no1,CP247,0.7079,"inhibitor, single point"
CC(C)=CC1C(C(=O)OCc2cccc(Oc3ccccc3)c2)C1(C)C (centres undefined),CP286,17.78,"inhibitor, single point"
CC(C)=CC1C(C(=O)OCc2cccc(Oc3ccccc3)c2)C1(C)C (centres undefined),CP260,10,"inhibitor, single point"
CN(C)CCN(Cc1cccs1)c1ccccn1,CP266,5.358,"inhibitor, partial curve"
CN(C)CCN(Cc1cccs1)c1ccccn1,CP305,8.492,"inhibitor, partial curve"
CN(C)CCN(Cc1cccs1)c1ccccn1,CP194,12,"inhibitor, partial curve"
CN(C)CCN(Cc1cccs1)c1ccccn1,CP256,7.943,"inhibitor, partial curve"
CN(C)CCN(Cc1cccs1)c1ccccn1,ICS,5.623,"inhibitor, partial curve, poor fit"
CN(C)CCN(Cc1cccs1)c1ccccn1,PAD,4.467,"inhibitor, partial curve"
CN(C)CCN(Cc1cccs1)c1ccccn1,CP325,9.528,"inhibitor, partial curve, poor fit"

For reference, 4 entries once more:

Compound,setting,potency (µM),curve as filed
CC(C)OC(=O)Nc1ccc2nc(-c3cscn3)[nH]c2c1,CP247,10,"inhibitor, single point"
CC(C)OC(=O)Nc1ccc2nc(-c3cscn3)[nH]c2c1,ICS,17.78,"inhibitor, single point"
CN(C)CCN(Cc1cccs1)c1ccccn1,CP194,12,"inhibitor, partial curve"
NS(=O)(=O)Cc1noc2ccccc12,7G8,17.78,"inhibitor, single point"

The results are deposited in PubChem (AID504749; NCATS, 2011).